At least one structure is not confirmed: it was looked up by name or label, or the drawing left a doubt.
Test system: polarized rat fungiform taste receptor cells
Test: [Na+]i measurement (Na-green F490) in polarized taste receptor cells, unilateral apical Na+ flux
Type: cell-based
Description: [Na^+]i measurement in polarized taste receptor cells. A small piece of the anterior lingual epithelium containing a single fungiform papilla was mounted in a special microscopy chamber (Lyall et al., 2002, supra). Relative changes in intracellular sodium activity ([Na^+]i) were monitored in polarized taste receptor cells with the sodium sensitive fluoroprobe sodium-green. The taste receptor cells in the taste bud were visualized from the basolateral side through a 40× objective using a fluorescence microscope.

Compound: CCCCCCCCCCCCCCCC[n+]1ccccc1 [CPC, cetylpyridinium chloride]
- effect on unilateral apical Na+ flux (CPC at an agonist concentration): enhanced
- effect on unilateral apical Na+ flux (CPC at an antagonist concentration): inhibited
